# Legend:
# [1] = tested on: dimethylnitrosamine-induced hepatic fibrosis; assay: Dimethylnitrosamine-induced severe liver fibrosis in rats (Example 1); assay type: in vivo; settings: rats given Halofuginone alone, 5 mg/kg diet
# Protocol: The experimental method was as follows. Male Sprague-Dawley rats were divided into four groups. Two groups were injected intraperitoneally with 1% dimethylnitrosamine in saline for three consecutive days per week for 3 weeks, at a dose of 1 ml/kg body weight. This dosage regimen will induce severe liver fibrosis. The other two groups of rats, control rats, were injected with saline. One group of dimethylnitrosamine-treated rats and one control group were fed Halofuginone in the diet at a dose of 5 mg/kg weight of diet, starting three days before the dimethylnitrosamine injections were administered. At the end of the experimental period, the rats were sacrificed and the liver was removed and weighed.
# Liver samples were taken for histological examination. Briefly, the tissue samples were collected into phosphate-buffered saline (PBS) and fixed overnight in 4% paraformaldehyde in PBS at 4° C. Serial 5 μm sections were prepared after the samples had been dehydrated in graded ethanol solutions, cleared in chloroform and embedded in Paraplast. Differential staining of collagenous and non-collagenous proteins was performed with 0.1% Sirius red and 0.1% fast green as a counter-stain in picric acid. This procedure stains collagen red [Gascon-Barre, M., et al., J. Histochem. Cytochem., 37:377-381, 1989].
# Liver samples were then hybridized with a probe for rat collagen α1(I) expression. […]
# [2] = tested on: mild dimethylnitrosamine-induced fibrosis; assay: Mild dimethylnitrosamine-induced fibrosis in rat liver (Example 2); assay type: in vivo; settings: Halofuginone alone
# Protocol: The specific experimental method used was similar to that of Example 1, except that the dimethylnitrosamine-treated rats were only given 0.25% dimethylnitrosamine in saline, a much lower dose than that given in Example 1 above. Also, the duration of treatment was longer before the rats were sacrificed: 4 weeks as opposed to 3 weeks in Example 1.
# The expression of the collagen α1(I) gene was measured as described in Example 1 above. For hydroxyproline analysis, liver samples were hydrolyzed for 22 hours at 110° C. with 6 N HCl. Nitrogen was determined after Kjeldahl digestion by the spectrophotometric procedure using an autoanalyzer as described by Krom [M. D. Krom, Analyst, 105:305-16, 1980]. The collagen-unique amino acid hydroxyproline from the same hydrolysate was determined by amino acid analysis (Biotronik LC 5000, Germany) after post-column derivatization on a cation exchange column (BTC 2710, Biotronik). The results are expressed as the percentage of collagen in total liver proteins.
smiles,measurement,setting,value
O=C(CC1NCCC[C@H]1O)Cn1cnc2cc(Br)c(Cl)cc2c1=O (some centres unmarked) [Halofuginone],expression of collagen α1(I) gene in liver (in situ hybridization),[1],low expression
same,collagen α1(I) gene expression in liver,[2],no effect
